± gives the standard deviation of the averaged measurements. Some of the results follow.
Biological target: T1, UniProt Q8NHP6 and related entries
T1 sequence (whole entry): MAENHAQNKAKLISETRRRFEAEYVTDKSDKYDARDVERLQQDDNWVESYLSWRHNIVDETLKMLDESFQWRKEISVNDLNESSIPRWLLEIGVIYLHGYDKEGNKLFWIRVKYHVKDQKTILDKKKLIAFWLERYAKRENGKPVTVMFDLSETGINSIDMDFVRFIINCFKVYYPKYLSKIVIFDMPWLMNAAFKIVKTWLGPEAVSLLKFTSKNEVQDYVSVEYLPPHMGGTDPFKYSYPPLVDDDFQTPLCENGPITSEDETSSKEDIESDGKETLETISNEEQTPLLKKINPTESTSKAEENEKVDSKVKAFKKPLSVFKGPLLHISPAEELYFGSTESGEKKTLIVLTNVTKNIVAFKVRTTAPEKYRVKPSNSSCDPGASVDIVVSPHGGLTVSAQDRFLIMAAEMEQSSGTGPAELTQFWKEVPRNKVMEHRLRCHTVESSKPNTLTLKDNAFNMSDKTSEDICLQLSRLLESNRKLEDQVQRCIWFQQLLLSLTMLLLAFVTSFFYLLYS
Assay: NP40-soluble protein abundance relative to vehicle (solubility fold change) (ratio); higher = more soluble protein in presence of GTP
Description: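 Solubility proteome profiling in Jurkat crude lysate. Lysate was treated with Mg-GTP (0.1-10 mM) for 10 min at room temperature and 3 min at 37 °C, then solubilised with 0.8% NP40 and benzonase, followed by ultracentrifugation. Proteins were quantified by TMT10 LC-MS/MS; the value is the NP40-soluble abundance relative to the NP40-processed vehicle, from 3 independent experiments.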

Nc1nc2c(ncn2[C@@H]2O[C@H](COP(=O)(O)OP(=O)(O)OP(=O)(O)O)[C@@H](O)[C@H]2O)c(=O)[nH]1 [guanosine triphosphate]
NP40-soluble protein abundance (concentration: 0.1mM): 0.986 ± 0.035 | NP40-soluble protein abundance (concentration: 0.5mM): 0.9742 ± 0.0083 | NP40-soluble protein abundance (concentration: 1mM): 0.917 ± 0.035 | NP40-soluble protein abundance (concentration: 2mM): 0.944 ± 0.044 | NP40-soluble protein abundance (concentration: 4mM): 0.909 ± 0.029 | NP40-soluble protein abundance (concentration: 6mM): 0.905 ± 0.018 | NP40-soluble protein abundance (concentration: 8mM): 0.85 ± 0.041 | NP40-soluble protein abundance (concentration: 10mM): 0.876 ± 0.087
